# Source: the supplement of paper PMC12067093, “Discovery and optimisation of a covalent ligand for TRIM25 and its application to targeted protein ubiquitination” (Chemical Science, 2025)
# Some of the results follow.
# Compound: CC1Cc2ccccc2N1C(=O)C1CCCN(C1)C(=O)CCl (mixture of isomers) [TRIM25 ligand 11 (diastereomer mixture)]
# Assay: probe-labelled cysteine peptide fold change vs DMSO (competition) (log2 fold change); higher = less target engagement (more negative = stronger competition)
# Conditions: 10 µM; THP-1; incubation time: 4 h
# 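Also: competitive chemoproteomic profiling in live THP-1 cells with an iodoacetamide desthiobiotin (IA-DTB) probe, comparing probe-labelled peptide intensities in compound-treated cells against DMSO-treated controls.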
row,Target,probe-labelled cysteine peptide fold change
1,DIS3L_Q8TF46_962_CHSDTIR (UniProt Q8TF46),0.154
2,DIAPH3_Q9NSV4_663_IRPHEMTENCFWIK (UniProt Q9NSV4),-0.181
3,DNAAF5_Q86Y56_773_MAAASTLVTWLQCVK (UniProt Q86Y56),0.176
4,DIS3L_Q8TF46_482_GCEDVDDTLSVR (UniProt Q8TF46),-0.134
5,DKC1_O60832_310_DSAVNAICYGAK (UniProt O60832),-0.15
6,DHTKD1_Q96HY7_808_TLVFCSGK (UniProt Q96HY7),0.0458
7,DIAPH1_O60610_1027_MTLLHFLAELCENDYPDVLKFPDELAHVEK (UniProt O60610),-0.189
8,DLD_P09622_85_NETLGGTCLNVGCIPSK (UniProt P09622),0.242
9,DNAJC10_Q8IXB1_161_EFDAAVNSGELWFVNFYSPGCSHCHDLAPTWR (UniProt Q8IXB1),0.476
10,DLAT_P10515_164_DVPIGAIICITVGKPEDIEAFK (UniProt P10515),-0.0624
11,DNAJA2_O60884_280_IGLVEALCGFQFTFK (UniProt O60884),0.161
12,DNM1L_O00429_505_HPDFADACGLMNNNIEEQR (UniProt O00429),-0.17
13,DIS3L2_Q8IYB7_216_DETTCISQDTR (UniProt Q8IYB7),-0.0346
14,DIAPH2_O60879_159_HECTLSSQEYVHELR (UniProt O60879),0.02
15,DHX57_Q6P158_598_VANIICTQPR (UniProt Q6P158),-0.0517
16,DNAJC16_Q9Y2G8_375_LFHELCPVKR (UniProt Q9Y2G8),-0.0102
17,DHX38_Q92620_582_TTQLTQYLHEDGYTDYGMIGCTQPR (UniProt Q92620),0.0347
18,DIDO1_Q9BTC0_1079_AYPVSGCFDYLSEDLPDTIHIGGR (UniProt Q9BTC0),-0.061
19,DIAPH2_O60879_821_LTFEEHINNIKPSIIAVTLACEELK (UniProt O60879),0.0764
20,DIS3_Q9Y2L1_474+492_HLCICSVDPPGCTDIDDALHCR (UniProt Q9Y2L1),-0.14

# Same assay, conditions: 50 µM; THP-1; incubation time: 4 h
row,Target,probe-labelled cysteine peptide fold change
1,DHX16_O60231_932_VEVGLSSCQGDYIR (UniProt O60231),-0.0152
2,DNAJC7_Q99615_175_ALEFAPACHR (UniProt Q99615),0.158
3,DHRS4L2_Q6PKH6_86_KQQNVDQAVATLQGEGLSVTGTVCHVGK (UniProt Q6PKH6),-0.116
4,DKK2_Q9UBU2_214_ICKPVLHQGEVCTK (UniProt Q9UBU2),-0.0316
5,DHX9_Q08211_612_DKDDDGGEDDDANCNLICGDEYGPETR (UniProt Q08211),-0.286
6,DICER1_Q9UPY3_1063_LHCLLTAEELR (UniProt Q9UPY3),0.055
7,DIAPH1_O60610_1027_MTLLHFLAELCENDYPDVLK (UniProt O60610),0.0888
8,DMTF1_Q9Y222_271_DRCRLMKDTCNTGK (UniProt Q9Y222),0.134
9,DNAJA1_P31689_153_GAVECCPNCR (UniProt P31689),0.0385
10,DNAJA3_Q96EY1_289+292_GSIIISPCVVCR (UniProt Q96EY1),0.0461
11,DHX8_Q14562_280_VTSIMQFGCFVQLEGLR (UniProt Q14562),0.042
12,DIS3L2_Q8IYB7_797_IYCNALALR (UniProt Q8IYB7),0.154
13,DHX9_Q08211_608+612_KDKDDDGGEDDDANCNLICGDEYGPETR (UniProt Q08211),-0.345
14,DNAAF5_Q86Y56_349_RPVLGCR (UniProt Q86Y56),-0.00168
15,DIAPH2_O60879_862_INFLCK (UniProt O60879),0.234
16,DIAPH3_Q9NSV4_1158_EACNVESNR (UniProt Q9NSV4),-0.126
17,DIS3L_Q8TF46_962_CHSDTIR (UniProt Q8TF46),-0.0623
18,DIAPH3_Q9NSV4_663_IRPHEMTENCFWIK (UniProt Q9NSV4),-0.0782

row,Target,probe-labelled cysteine peptide fold change
1,DNAAF5_Q86Y56_773_MAAASTLVTWLQCVK (UniProt Q86Y56),0.0549
2,DIS3L_Q8TF46_482_GCEDVDDTLSVR (UniProt Q8TF46),-0.0752
3,DKC1_O60832_310_DSAVNAICYGAK (UniProt O60832),-0.0673
4,DHTKD1_Q96HY7_808_TLVFCSGK (UniProt Q96HY7),0.119
5,DIAPH1_O60610_1027_MTLLHFLAELCENDYPDVLKFPDELAHVEK (UniProt O60610),-0.171
6,DLD_P09622_85_NETLGGTCLNVGCIPSK (UniProt P09622),0.0374
7,DNAJC10_Q8IXB1_161_EFDAAVNSGELWFVNFYSPGCSHCHDLAPTWR (UniProt Q8IXB1),-0.235
8,DLAT_P10515_164_DVPIGAIICITVGKPEDIEAFK (UniProt P10515),-0.0699
9,DNAJA2_O60884_280_IGLVEALCGFQFTFK (UniProt O60884),0.21
10,DNM1L_O00429_505_HPDFADACGLMNNNIEEQR (UniProt O00429),-0.224
11,DIS3L2_Q8IYB7_216_DETTCISQDTR (UniProt Q8IYB7),-0.112
12,DIAPH2_O60879_159_HECTLSSQEYVHELR (UniProt O60879),-0.127
13,DHX57_Q6P158_598_VANIICTQPR (UniProt Q6P158),-0.0882
14,DNAJC16_Q9Y2G8_375_LFHELCPVKR (UniProt Q9Y2G8),0.0535
15,DHX38_Q92620_582_TTQLTQYLHEDGYTDYGMIGCTQPR (UniProt Q92620),-0.0104
16,DIDO1_Q9BTC0_1079_AYPVSGCFDYLSEDLPDTIHIGGR (UniProt Q9BTC0),-0.0264
17,DIAPH2_O60879_821_LTFEEHINNIKPSIIAVTLACEELK (UniProt O60879),0.000837
18,DIS3_Q9Y2L1_474+492_HLCICSVDPPGCTDIDDALHCR (UniProt Q9Y2L1),-0.143
